Record: PubChem BioAssay AID652243 (Drosophila RNAi Screening Center, 2013)

Assay: 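Fly regulators of androgen-dependent reporter output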 (primary screen)
Cell system: Drosophila S2R+ cells
Reagent: long dsRNA against Drosophila genes
Timing: 72 h (48 h, then 24 h hormone)
Treatment: synthetic androgen R1881 at 10 nM for 24 h
Measurement: 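Per-well raw luminescence of the androgen-driven firefly reporter and of the Renilla control, two replicates each, without normalisation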
Scale: firefly reporter light: higher = more light from androgen-responsive reporter; Renilla control light: higher = more constitutive control signal (cell number, transfection)
Hit rule: 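Across duplicate plates, a knock-down whose log firefly/Renilla ratio shifted a set fold down or up from the GFP/LacZ control mean was a hit; the downward cut appears as both 1.5 and 3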
Calls: active = hit: reporter lowered or raised; inactive = no hit
The screen tested about 24,000 reagents; shown is an unselected part of those with a known target gene and a result. Over the whole deposit, 246 (1%) are marked active. 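Plates not normalised; calls are printed but the firefly/Renilla ratio behind them is not deposited; fold cut for lowering reported inconsistently.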 Raw values are not corrected between plates. A plus sign joins genes that one reagent is predicted to hit. Not given: the amount of reagent.

| predicted target | DRSC id | firefly reporter light, replicate 1 | firefly reporter light, replicate 2 | Renilla control light, replicate 1 | Renilla control light, replicate 2 | Outcome |
| --- | --- | --- | --- | --- | --- | --- |
| CG14450 | DRSC11707 | 2.56e5 | 2.43e5 | 1.07e6 | 1.35e6 | inactive |
| CG14450 | DRSC29442 | 6.26e5 | 5.47e5 | 9.18e5 | 9.18e5 | inactive |
| CG30222 | DRSC04125 | 1.42e5 | 1.92e5 | 1.05e6 | 5.59e5 | inactive |
| CG30222 | DRSC04262 | 4.22e5 | 4.62e5 | 2.88e6 | 2.53e6 | inactive |
| CG7966 | DRSC16356 | 68408 | 48156 | 5.94e5 | 2.74e5 | inactive |
| Nmd3 | DRSC18687 | 1.11e5 | 1.04e5 | 1.38e6 | 7.19e5 | inactive |
| Nmd3 | DRSC22834 | 4.27e5 | 8.01e5 | 4.87e5 | 7.80e5 | inactive |
| CG34263 | DRSC38858 | 7.69e5 | 6.65e5 | 1.88e6 | 1.37e6 | inactive |
| CG6195 | DRSC15989 | 2.20e5 | 3.36e5 | 3.07e6 | 3.25e6 | inactive |
| CG6195 | DRSC25477 | 7.11e5 | 7.38e5 | 8.62e5 | 8.79e5 | inactive |
| CG34138 | DRSC38592 | 9.24e5 | 8.59e5 | 2.19e6 | 2.38e6 | inactive |
| prim | DRSC06575 | 1.10e5 | 1.25e5 | 1.71e6 | 1.71e6 | inactive |
| CG31806 | DRSC02787 | 1.07e5 | 91872 | 1.76e6 | 1.61e6 | inactive |
| CG31806 | DRSC29784 | 2.50e5 | 2.81e5 | 1.01e6 | 1.14e6 | inactive |
| eIF2alpha | DRSC20327 | 1.01e5 | 1.96e5 | 4.15e5 | 5.53e5 | inactive |
| CG17202 | DRSC23073 | 7.72e5 | 9.06e5 | 6.62e5 | 6.31e5 | inactive |
| CG8420 | DRSC16418 | 1.70e5 | 1.46e5 | 2.83e6 | 2.52e6 | inactive |
| CG15745 (retired record) | DRSC19711 | 5.12e5 | 4.45e5 | 3.36e6 | 3.87e6 | inactive |
| RpL28 + snoRNA:Or-CD12 | DRSC08293 | 1.65e5 | 1.75e5 | 1.22e6 | 1.52e6 | inactive |
| CG13924 | DRSC08393 | 47419 | 61916 | 8.30e5 | 8.52e5 | inactive |
| Jon65Aiii | DRSC10649 | 7.91e5 | 9.92e5 | 8.17e5 | 1.68e6 | inactive |
| Jon65Aiii | DRSC25428 | 5.37e5 | 6.75e5 | 4.54e5 | 5.50e5 | inactive |
| CG4213 | DRSC00641 | 1.70e5 | 1.04e5 | 9.97e5 | 8.56e5 | inactive |
| Send2 | DRSC01906 | 2.27e5 | 2.59e5 | 2.57e6 | 2.42e6 | inactive |

3 entries from above in another layout:
{"predicted target":"CG31806","DRSC id":"DRSC29784","firefly reporter light, replicate 1":2.50e5,"firefly reporter light, replicate 2":2.81e5,"Renilla control light, replicate 1":1.01e6,"Renilla control light, replicate 2":1.14e6,"Outcome":"inactive"}
{"predicted target":"eIF2alpha","DRSC id":"DRSC20327","firefly reporter light, replicate 1":1.01e5,"firefly reporter light, replicate 2":1.96e5,"Renilla control light, replicate 1":4.15e5,"Renilla control light, replicate 2":5.53e5,"Outcome":"inactive"}
{"predicted target":"CG17202","DRSC id":"DRSC23073","firefly reporter light, replicate 1":7.72e5,"firefly reporter light, replicate 2":9.06e5,"Renilla control light, replicate 1":6.62e5,"Renilla control light, replicate 2":6.31e5,"Outcome":"inactive"}
